Measurements taken from publication PMC10553006.
Results are given in words; binding and its absence hold for the method and conditions named. Binding seen in cells or lysates may run through a third protein. Some results given as binding are weak or reduced against the parent protein; the word gives no strength. For some assays here: Tags and fused reporters may be left off the sequences shown.

The chains behind the UniProt entries cited, without tags or fusion partners.
UniProt P45974: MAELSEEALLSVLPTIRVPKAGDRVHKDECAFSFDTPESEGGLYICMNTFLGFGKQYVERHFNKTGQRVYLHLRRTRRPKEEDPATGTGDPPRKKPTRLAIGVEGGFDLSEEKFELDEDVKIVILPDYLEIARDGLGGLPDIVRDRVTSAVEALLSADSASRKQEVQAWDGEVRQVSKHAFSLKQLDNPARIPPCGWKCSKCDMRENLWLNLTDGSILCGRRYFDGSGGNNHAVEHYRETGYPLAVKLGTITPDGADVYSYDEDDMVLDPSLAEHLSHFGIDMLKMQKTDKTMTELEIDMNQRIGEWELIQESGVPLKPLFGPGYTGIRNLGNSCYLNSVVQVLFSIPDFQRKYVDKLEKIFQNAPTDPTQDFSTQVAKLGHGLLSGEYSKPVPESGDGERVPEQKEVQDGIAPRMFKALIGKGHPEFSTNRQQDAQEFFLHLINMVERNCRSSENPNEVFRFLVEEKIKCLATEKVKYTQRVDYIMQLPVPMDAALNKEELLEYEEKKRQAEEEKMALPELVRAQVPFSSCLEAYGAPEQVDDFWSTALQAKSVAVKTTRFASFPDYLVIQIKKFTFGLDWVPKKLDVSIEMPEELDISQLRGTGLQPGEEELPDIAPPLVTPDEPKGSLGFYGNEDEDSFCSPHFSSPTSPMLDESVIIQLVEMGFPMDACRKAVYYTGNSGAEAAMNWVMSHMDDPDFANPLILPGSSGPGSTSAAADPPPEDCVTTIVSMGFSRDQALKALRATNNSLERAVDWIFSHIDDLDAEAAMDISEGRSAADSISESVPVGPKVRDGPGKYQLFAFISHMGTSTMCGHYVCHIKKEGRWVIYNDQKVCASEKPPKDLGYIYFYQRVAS

Experiments:
[1] = molecular target: T1, Flag-TXNIP (thioredoxin-interacting protein) (UniProt Q9H3M7); experiment: co-IP; Huh7 and HepG2 cells cotransfected with Flag-TXNIP and HA-USP5 for 48 hours; lysates incubated with anti-Flag (M2) or anti-HA beads at 4°C overnight, washed five times, western blotting
T1 sequence: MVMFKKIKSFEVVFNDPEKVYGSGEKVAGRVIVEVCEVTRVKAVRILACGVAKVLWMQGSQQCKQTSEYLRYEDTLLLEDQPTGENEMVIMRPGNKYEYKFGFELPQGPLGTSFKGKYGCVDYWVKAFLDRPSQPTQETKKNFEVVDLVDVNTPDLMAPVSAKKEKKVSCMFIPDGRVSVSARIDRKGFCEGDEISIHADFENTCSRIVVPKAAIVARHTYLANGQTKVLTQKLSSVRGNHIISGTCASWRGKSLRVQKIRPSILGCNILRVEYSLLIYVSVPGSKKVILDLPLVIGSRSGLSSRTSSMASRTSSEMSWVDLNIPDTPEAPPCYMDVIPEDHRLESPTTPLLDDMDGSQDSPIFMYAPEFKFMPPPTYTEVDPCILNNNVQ

[2] = molecular target: T2, TXNIP (thioredoxin-interacting protein), endogenous (human (endogenous in Huh7 and HepG2)) (UniProt Q9H3M7); experiment: co-IP; endogenous proteins; lysates of untransfected Huh7 and HepG2 cells incubated with anti-TXNIP or anti-USP5 antibody at 4°C overnight, western blotting
T2 sequence: T1 sequence

| binding [1] | binding [2] | Substance |
| --- | --- | --- |
| binds |  | HA-USP5 (ubiquitin-specific protease 5) (from UniProt P45974 1-858) (enzyme) |
|  | binds | USP5 (ubiquitin-specific protease 5), endogenous (from UniProt P45974 1-858) (enzyme) |
